The nature of this data set: general procedure: Boc solid-phase peptide synthesis; benzhydrylamine resin (2 mmol/5 g amino group); DCC. To be noted: whole synthesis.

Some peptides are written in HELM: one residue between dots, names in brackets for other building blocks, links after the first $.

The substance “PEPTIDE1{[NMeTyr].G.G.F.L.R.R.[dI].R.P.K.[dL].K.W.[am]}$$$$V2.0” had a crude mass of 850 mg. Where the note is “scale of the general procedure 5 g resin (2 mmol)”, this substance returned an isolated yield of 3.5%.

The record behind these values is patent publication US4551273A (Eisai Co., Ltd., priority 1983, dated 1985).
